Screening data, single-dose tests

Amino acid sequences for entries named in this document (tags omitted). Residues count along the entry.
UniProt Q4DA54, 1-478: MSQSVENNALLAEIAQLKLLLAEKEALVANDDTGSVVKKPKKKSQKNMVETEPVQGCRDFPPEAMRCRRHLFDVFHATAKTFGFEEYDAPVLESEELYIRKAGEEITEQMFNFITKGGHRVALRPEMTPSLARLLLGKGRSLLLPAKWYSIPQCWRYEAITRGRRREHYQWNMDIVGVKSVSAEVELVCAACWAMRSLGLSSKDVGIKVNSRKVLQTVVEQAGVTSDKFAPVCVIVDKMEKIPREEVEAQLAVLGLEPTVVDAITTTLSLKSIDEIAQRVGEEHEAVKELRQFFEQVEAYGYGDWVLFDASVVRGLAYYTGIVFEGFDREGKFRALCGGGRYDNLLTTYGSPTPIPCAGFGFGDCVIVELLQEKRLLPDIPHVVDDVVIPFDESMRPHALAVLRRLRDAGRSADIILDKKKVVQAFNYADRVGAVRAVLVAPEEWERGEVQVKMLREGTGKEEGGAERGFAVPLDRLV
UniProt A4I591, 1-473: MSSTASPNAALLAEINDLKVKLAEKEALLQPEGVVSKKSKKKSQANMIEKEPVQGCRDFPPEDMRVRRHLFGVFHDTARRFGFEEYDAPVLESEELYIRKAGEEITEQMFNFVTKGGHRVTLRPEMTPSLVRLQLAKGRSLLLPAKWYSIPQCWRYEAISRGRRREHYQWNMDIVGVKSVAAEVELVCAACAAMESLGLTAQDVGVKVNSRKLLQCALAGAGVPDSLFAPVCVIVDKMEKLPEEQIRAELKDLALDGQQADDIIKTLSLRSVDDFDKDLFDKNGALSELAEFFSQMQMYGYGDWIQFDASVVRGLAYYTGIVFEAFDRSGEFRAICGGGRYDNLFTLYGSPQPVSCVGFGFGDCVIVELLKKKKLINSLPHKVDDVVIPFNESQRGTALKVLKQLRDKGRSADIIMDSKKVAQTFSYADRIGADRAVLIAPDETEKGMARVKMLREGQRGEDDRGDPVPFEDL

Source: ChEMBL document CHEMBL3988442, “University of Dundee, Small-Polar-MMV Screening Library” (2021).

Toxoplasma: 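Assay of Toxoplasma gondii numbers, read through their beta-galactosidase reporter with a colour substrate. Tested at 10 µM. Higher reads as fewer parasites (inferred from which compounds were picked for retests). About 67,000 compounds were tested under these conditions; 0.38% (about 260) showed 50% or more at least once.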
TcHisRS: 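Histidine-tRNA ligase, Trypanosoma cruzi CL Brener (UniProt Q4DA54). Enzyme assay of histidyl-tRNA synthetase; the read-out is not stated. Concentration: 30 µM. The record gives no direction; compounds that gave an IC50 in retests scored well above the rest, so higher reads as stronger inhibition. Of about 69,000 compounds tested this way, about 31 (0.045%) reached 50% or more in at least one test.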
LiHisRS: 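Enzyme assay of histidyl-tRNA synthetase; the read-out is not stated. Target: Histidine-tRNA ligase, Leishmania infantum (UniProt A4I591). Concentration: 30 µM. Higher reads as stronger inhibition (inferred: compounds with an IC50 in retests scored well above the rest). The assay is labelled LdHisRS but filed under L. infantum. About 69,000 compounds were tested under these conditions; 0.6% (about 410) showed 50% or more at least once.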
T. brucei: 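Whole-parasite assay of Trypanosoma brucei over 72 hours; the read-out is not stated. Compounds at 30 µM. Direction is inferred from retests: higher values go with stronger inhibition. Values scatter widely below zero; nearly all retest evidence comes from the higher of the two concentrations used. About 64,000 compounds were tested under these conditions; 1.5% (about 940) showed 50% or more at least once.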

Values are the deposited “Percent Effect”, in %. The controls that fix the scale are not given in the record; negative values are as filed. This is an unselected part of the compounds tested.

- NC(=O)C1(CCCc2ccccn2)CCCN(c2ncccn2)C1 (stereo not drawn) : Toxoplasma: -17.02%; TcHisRS: 11.11%; LiHisRS: 8.247%; T. brucei: 3.164%
- CN(C)C(=O)NC1COC2(CCN(Cc3ccccc3)CC2)C1 (stereo not drawn) : TcHisRS: 4.918%; LiHisRS: -5.109%
- CS(=O)(=O)NCCC1CCCCN1C(=O)NCCc1ccccn1 (stereo not drawn) : Toxoplasma: 5.833%; TcHisRS: 4.103%; LiHisRS: -2.041%; T. brucei: -19.41%
- Cc1cnc2cc(C3CCN(C(=O)c4ccncc4)CC3)[nH]c2n1 : Toxoplasma: 4.739%; TcHisRS: 3.802%; LiHisRS: 7.586%; T. brucei: -0.02882%
- CN(Cc1cccnc1)CC1CC12CCN(c1nncs1)CC2 (stereo not drawn) : TcHisRS: 4.301%; LiHisRS: 10.53%
- Cc1nn(CC(=O)Nc2ccon2)c(C)c1Br : Toxoplasma: -30.02%; TcHisRS: 0.4464%; LiHisRS: 6.173%; T. brucei: 9.972%
- CCc1csc(C2CCCN(C(=O)c3ccc(OC)nn3)C2)n1 (stereo not drawn) : Toxoplasma: -1.059%; TcHisRS: 3.817%; LiHisRS: 10.96%; T. brucei: 20.72%
- COc1cccc(NC(=O)NCc2cnn(C)c2)c1 : Toxoplasma: -8.394%; TcHisRS: 6.931%; LiHisRS: 11.9%; T. brucei: -3.801%
- CC(C)c1nc(CN2CCN(CC(O)c3ccccc3)CC2)no1 (stereo not drawn) : Toxoplasma: -10.77%; TcHisRS: 1.69%; LiHisRS: 4.348%; T. brucei: -18.95%
- Cc1cccc(NS(=O)(=O)c2cc(C(=O)O)oc2C)c1Cl : Toxoplasma: 2.435%; TcHisRS: 0.7634%; LiHisRS: 2.74%; T. brucei: 33.76%
- COC(=O)CN(Cc1ccccc1C)C(=O)COCC1CC1 : Toxoplasma: 0.2401%; TcHisRS: 2.521%; LiHisRS: 7.018%; T. brucei: -13.53%
- CCN1CCC(N2C[C@H]3OC(=O)N(CCc4cccc(Cl)c4)[C@H]3C2)CC1 : TcHisRS: 6.704%; LiHisRS: 5.208%
- COc1ccc(-c2nnc([C@H]3CCN(CC4CC4)C3)o2)cc1 : Toxoplasma: -1.006%; TcHisRS: 5.435%; LiHisRS: 6.757%; T. brucei: -16.5%
- CCCc1nccn1-c1ccncc1 : Toxoplasma: -49.43%; TcHisRS: 6.579%; LiHisRS: 25.83%; T. brucei: -9.93%
- COCCN(C)C(=O)c1nc2c(s1)CCCN2c1ccc(C)nn1 : Toxoplasma: -2.715%; TcHisRS: 9.497%; LiHisRS: 5.769%; T. brucei: -2.399%
- Cc1nc(CCNC(=O)C2CCN(C(C)C)CC2)sc1Cl : Toxoplasma: -11.54%; TcHisRS: 8.163%; LiHisRS: 19.83%; T. brucei: 3.79%
- COc1ccccc1CC(C)CC(=O)NS(=O)(=O)C(C)C (stereo not drawn) : Toxoplasma: 16.7%; TcHisRS: 6.736%; LiHisRS: 12.36%; T. brucei: -19.92%
- Cc1n[nH]cc1CNC(=O)[C@H]1CCCCN1C(=O)OC(C)(C)C : Toxoplasma: 10.23%; TcHisRS: 6.349%; LiHisRS: -9.091%; T. brucei: 34.92%
- CS(=O)(=O)N1CCCCC12CCCN(Cc1nccs1)C2.O=C(O)C(F)(F)F (stereo not drawn) : Toxoplasma: 9.764%; T. brucei: -57.13%
- COCCNC(=O)c1cc(-c2cc[nH]n2)n2ccccc12 : TcHisRS: -10.43%; LiHisRS: -14.81%
- COc1cc2cc3c(nc2cc1OC)OCCN(Cc1cccs1)C3 : Toxoplasma: 1.68%; TcHisRS: 3.383%; LiHisRS: 7.092%
- Cc1ccc(CCN2CCCC23Cc2ccccc2CNC3=O)cc1 (stereo not drawn) : Toxoplasma: 12.11%; TcHisRS: 12.43%; LiHisRS: 19.31%
- CCOc1ccc(CNCc2ccc(C(=O)NC)cc2)cc1OCC : Toxoplasma: -9.942%; TcHisRS: 5.806%; LiHisRS: 21.21%; T. brucei: 1.119%
- CC(C)COCC1CN(Cc2cnn(C)c2)Cc2ncn(C)c21 (stereo not drawn) : Toxoplasma: 6.914%; TcHisRS: 0%; LiHisRS: 16.44%; T. brucei: -10.7%
- O=C(NCC[S+]([O-])Cc1ccccc1)c1ccc2[nH]c(=O)[nH]c2c1 (stereo not drawn) : Toxoplasma: 8.319%; TcHisRS: 8.04%; LiHisRS: 17.65%; T. brucei: -38.06%
- Cc1cc2cccc(NC(=O)N3CCC(N(C)C)C3)c2o1 (stereo not drawn) : Toxoplasma: 1.013%; TcHisRS: 9.278%; LiHisRS: 24.14%; T. brucei: -23.36%
- CCN(Cc1nccs1)Cc1cc(Cl)ccc1OC : Toxoplasma: 4.043%; TcHisRS: 9.36%; LiHisRS: -1.316%; T. brucei: -60.93%

The first 3 entries again:

NC(=O)C1(CCCc2ccccn2)CCCN(c2ncccn2)C1 (stereo not drawn) read Toxoplasma: -17.02%; TcHisRS: 11.11%; LiHisRS: 8.247%; T. brucei: 3.164%.
CN(C)C(=O)NC1COC2(CCN(Cc3ccccc3)CC2)C1 (stereo not drawn) read TcHisRS: 4.918%; LiHisRS: -5.109%.
CS(=O)(=O)NCCC1CCCCN1C(=O)NCCc1ccccn1 (stereo not drawn) read Toxoplasma: 5.833%; TcHisRS: 4.103%; LiHisRS: -2.041%; T. brucei: -19.41%.